Screening data

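293T-iDUX4 dual-reporter cells; luminescence of the tet-on Italica luciferase control is read after 24 h.
The test concentration is not given here.
Percent change in the Italica control signal; more negative values mean stronger inhibition, which points to nonspecific, tet-on or cytotoxic effects.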

Values are in %.
Common to all entries: measured here: Italica tet-on control reporter.
This is a side read-out of the assay, for part of the compounds, not drawn at random.

structure: OC[C@@H]1[C@H](c2ccc(C#Cc3ccccc3)cc2)[C@@H]2CN(Cc3cncnc3)CCCCN12
activity change (%): -11.28

structure: Cc1cccc(S(=O)(=O)N2C[C@@H]3N[C@H](C2)C3c2ccc(-c3cccnc3)cc2)c1 (stereo not given in full)
activity change (%): -0.1614

structure: O=C(C[C@H]1CC[C@H]2[C@@H](COC[C@@H](O)CN2S(=O)(=O)c2ccccc2Cl)O1)NCc1ccccc1Cl
activity change (%): -8.829

structure: CN(C)C(=O)c1cccc(-c2ccc3c(c2)[C@H]2[C@H](CCN2C(=O)c2ccc(F)cc2)[C@@H](CO)N3C)c1
activity change (%): -26.87

structure: C[C@H]1CN([C@@H](C)CO)C(=O)c2ccccc2-c2ccccc2CO[C@H]1CN(C)Cc1ccc(Oc2ccccc2)cc1
activity change (%): -10.28

structure: CN1c2ccc(-c3ccc(F)cc3)cc2[C@H]2[C@H](CCN2C(=O)Nc2ccc(F)cc2)[C@H]1CO
activity change (%): -85.65

structure: O=C(C[C@@H]1C[C@H]2c3cc(NC(=O)c4ccc5c(c4)OCO5)ccc3O[C@H]2[C@H](CO)O1)NCc1cccc(F)c1
activity change (%): -13.52

structure: Cc1ccc(S(=O)(=O)N2C[C@@H]3N[C@H](C2)C3c2ccc(-c3ccc(C(=O)N(C)C)cc3)cc2)cc1 (stereo not given in full)
activity change (%): 2.628

structure: C[C@@H]1CN([C@@H](C)CO)C(=O)c2c(c3ccccc3n2C)-c2ccccc2CO[C@H]1CN(C)Cc1ccc2c(c1)OCCN2C
activity change (%): -22.42

structure: CN1CCN(C(=O)C[C@@H]2CC[C@@H]3[C@H](COC[C@H](O)CN3Cc3cccc(-c4ccncc4)c3)O2)CC1
activity change (%): -17.17

structure: COc1ccc(-c2ccccc2[C@@H]2[C@@H](C#N)N(C(=O)NC3CCCCC3)[C@H]2CO)cc1
activity change (%): -16.5

structure: COc1cccc(S(=O)(=O)Nc2ccc3c(c2)[C@H]2C[C@H](CC(=O)NCc4ccc(Cl)cc4)O[C@@H](CO)[C@H]2O3)c1
activity change (%): -12.9

structure: O=C(c1cccnc1)N1CC[C@@H]2[C@H](CO)Nc3ccc(-c4cccc(F)c4)cc3[C@@H]21
activity change (%): -9.766

structure: O=C(c1cccc(F)c1)N1CC2(C1)[C@H](c1ccccc1)[C@H](CO)N2C(=O)C1CCCC1
activity change (%): -36.16

structure: CN(C)c1ccc2c(c1)[C@@H]1C[C@@H](CC(=O)NCc3ccc(-c4ccccc4)cc3)O[C@H](CO)[C@@H]1O2
activity change (%): -15.96

structure: O=C(Cc1ccccn1)N[C@H]1CC[C@H](CCNS(=O)(=O)c2cccc(F)c2)O[C@@H]1CO
activity change (%): -54.4

structure: CN1c2ccc(-c3ccc(F)cc3)cc2[C@@H]2[C@@H](CCN2C(=O)C2CCOCC2)[C@H]1CO
activity change (%): 0.3291

structure: CN(C)C(=O)c1cccc(-c2ccc3c(c2)[C@@H]2[C@@H](CCN2C(=O)c2ccc4c(c2)OCO4)[C@H](CO)N3)c1
activity change (%): -40.57

structure: O=S(=O)(c1cccc(F)c1)N1CC[C@@H]2[C@H]1c1cc(C#Cc3cccc(F)c3)ccc1N[C@@H]2CO
activity change (%): -8.373

structure: O=C(Cc1cccnc1)N1CC(=O)N2[C@H](C1)[C@@H](c1ccc(C#CC3CCCCC3)cc1)[C@@H]2CO
activity change (%): -10.06

structure: O=C(Nc1ccc(C(F)(F)F)cc1)Nc1ccc2c(c1)[C@H]1C[C@@H](CC(=O)N3CCc4ccccc4C3)O[C@H](CO)[C@H]1O2
activity change (%): -61.04

structure: C[C@H](CO)N1C[C@H](C)[C@H](CN(C)Cc2cccc(F)c2)OCc2ccccc2-c2ccccc2C1=O
activity change (%): -45.5

structure: Cc1cccc(S(=O)(=O)N2CC[C@@H]3[C@@H](CO)Nc4ccc(-c5ccccc5F)cc4[C@@H]32)c1
activity change (%): -14.79

structure: O=C(Nc1ccccc1)N1CC(=O)N2[C@H](CO)[C@H](c3ccc(-c4ccc(F)cc4)cc3)[C@@H]2C1
activity change (%): -13.71

structure: COc1ccccc1NC(=O)N1C[C@H](O)COC[C@@H]2O[C@@H](CC(=O)N3CCC(Cc4ccccc4)CC3)CC[C@H]21
activity change (%): -9.316

structure: Cc1ccccc1-c1ccc([C@@H]2[C@H](CO)N3CCCCN(C(=O)Nc4cccc(F)c4)C[C@@H]23)cc1
activity change (%): -66.82

structure: O=C(Nc1ccc(F)cc1)N1CC(=O)N2[C@@H](CO)[C@@H](c3ccc(C#Cc4cccnc4)cc3)[C@@H]2C1
activity change (%): -32.81

structure: CCC(=O)N(CC1CCC1)C[C@@H]1[C@@H](c2ccccc2)[C@H](CO)N1C(C)=O
activity change (%): -0.8021

structure: COc1cccc(-c2ccc3c(c2)[C@@H]2[C@@H](CCN2S(=O)(=O)c2ccc(F)cc2)[C@@H](CO)N3C)c1
activity change (%): -19.46

structure: O=C(Nc1cccc(F)c1)N1CC(=O)N2[C@@H](CO)[C@@H](c3ccc(C#CCC4CCCC4)cc3)[C@@H]2C1
activity change (%): -13.91

structure: O=S(=O)(c1ccccc1F)N1CC[C@@H]2[C@@H](CO)Nc3ccc(-c4cccc(F)c4)cc3[C@@H]21
activity change (%): -38.1

structure: CN1c2ccc(-c3cccc(C#N)c3)cc2[C@H]2[C@H](CCN2C(=O)NC2CCCC2)[C@@H]1CO
activity change (%): -8.223

structure: COc1ccc(S(=O)(=O)N[C@@H]2CC[C@@H](CCNC(=O)Cc3ccccn3)O[C@@H]2CO)cc1
activity change (%): -13.81

structure: COc1cccc(S(=O)(=O)N2CC[C@H]3[C@@H](CO)N(C)c4ccc(C#Cc5cccnc5)cc4[C@H]32)c1
activity change (%): -12.19

structure: O=C(C[C@H]1CC[C@@H](NC(=O)Nc2ccc(C(F)(F)F)cc2)[C@@H](CO)O1)NCc1cccc(F)c1
activity change (%): -6.875

structure: C[C@H](CO)N1C[C@H](C)[C@@H](CN(C)Cc2ccc(O)cc2)OCc2ccccc2-c2c(n(C)c3ccccc23)C1=O
activity change (%): -6.119

structure: COc1cccc(NC(=O)Nc2ccc3c(c2)C(=O)N(C)C[C@@H](OC)[C@H](C)CN(CC2CC2)[C@H](C)CO3)c1
activity change (%): 9.403

structure: O=C(C[C@H]1C=C[C@H](NC(=O)C2CCOCC2)[C@H](CO)O1)Nc1ccc(-c2ccccc2)cc1
activity change (%): -4.573

structure: COc1ccc2c3c(n(C)c2c1)[C@@H](CO)NCC31CN(C(=O)c2ccc(F)cc2)C1
activity change (%): -1.59

structure: Cc1ccccc1S(=O)(=O)N1[C@H](C#N)[C@@H](c2ccccc2-c2cccc(F)c2)[C@@H]1CO
activity change (%): -30.24

The last 2 entries again:

| structure | activity change (%) |
|---|---|
| `COc1ccc2c3c(n(C)c2c1)[C@@H](CO)NCC31CN(C(=O)c2ccc(F)cc2)C1` | -1.59 |
| `Cc1ccccc1S(=O)(=O)N1[C@H](C#N)[C@@H](c2ccccc2-c2cccc(F)c2)[C@@H]1CO` | -30.24 |

Source: PubChem BioAssay AID1224904 (Broad Institute, 2016).